Our source for the binding values is paper PMC7838283.

Protein sequences, listed by entry. Tags and fused reporters are not part of them. Lines headed by an entry give the natural chain unless they say otherwise; changes in a name come on top.
UniProt P10275: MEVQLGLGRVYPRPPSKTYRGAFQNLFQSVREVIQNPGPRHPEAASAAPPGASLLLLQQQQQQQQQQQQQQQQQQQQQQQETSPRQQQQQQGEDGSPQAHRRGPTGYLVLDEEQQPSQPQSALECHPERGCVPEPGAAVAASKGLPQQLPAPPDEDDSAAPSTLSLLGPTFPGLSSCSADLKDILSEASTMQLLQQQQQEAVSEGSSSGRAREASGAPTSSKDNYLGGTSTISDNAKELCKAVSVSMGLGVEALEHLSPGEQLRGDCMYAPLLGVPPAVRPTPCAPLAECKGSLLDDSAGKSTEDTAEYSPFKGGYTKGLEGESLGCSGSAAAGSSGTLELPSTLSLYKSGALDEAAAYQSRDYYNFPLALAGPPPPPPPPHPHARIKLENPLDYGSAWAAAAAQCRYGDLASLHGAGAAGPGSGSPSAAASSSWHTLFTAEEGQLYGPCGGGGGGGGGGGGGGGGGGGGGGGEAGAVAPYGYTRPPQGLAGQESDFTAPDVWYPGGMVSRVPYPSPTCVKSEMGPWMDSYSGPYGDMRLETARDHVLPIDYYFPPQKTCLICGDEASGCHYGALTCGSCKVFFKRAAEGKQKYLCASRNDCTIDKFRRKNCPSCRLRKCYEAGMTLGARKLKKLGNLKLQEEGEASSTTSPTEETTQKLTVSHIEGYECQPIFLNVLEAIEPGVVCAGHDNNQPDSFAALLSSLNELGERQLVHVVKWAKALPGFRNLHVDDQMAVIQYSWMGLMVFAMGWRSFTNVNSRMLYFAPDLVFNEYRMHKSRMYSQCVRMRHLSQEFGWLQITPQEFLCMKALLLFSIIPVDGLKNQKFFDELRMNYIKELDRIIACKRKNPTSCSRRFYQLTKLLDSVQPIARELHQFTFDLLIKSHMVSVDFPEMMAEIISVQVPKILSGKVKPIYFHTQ
UniProt P21333: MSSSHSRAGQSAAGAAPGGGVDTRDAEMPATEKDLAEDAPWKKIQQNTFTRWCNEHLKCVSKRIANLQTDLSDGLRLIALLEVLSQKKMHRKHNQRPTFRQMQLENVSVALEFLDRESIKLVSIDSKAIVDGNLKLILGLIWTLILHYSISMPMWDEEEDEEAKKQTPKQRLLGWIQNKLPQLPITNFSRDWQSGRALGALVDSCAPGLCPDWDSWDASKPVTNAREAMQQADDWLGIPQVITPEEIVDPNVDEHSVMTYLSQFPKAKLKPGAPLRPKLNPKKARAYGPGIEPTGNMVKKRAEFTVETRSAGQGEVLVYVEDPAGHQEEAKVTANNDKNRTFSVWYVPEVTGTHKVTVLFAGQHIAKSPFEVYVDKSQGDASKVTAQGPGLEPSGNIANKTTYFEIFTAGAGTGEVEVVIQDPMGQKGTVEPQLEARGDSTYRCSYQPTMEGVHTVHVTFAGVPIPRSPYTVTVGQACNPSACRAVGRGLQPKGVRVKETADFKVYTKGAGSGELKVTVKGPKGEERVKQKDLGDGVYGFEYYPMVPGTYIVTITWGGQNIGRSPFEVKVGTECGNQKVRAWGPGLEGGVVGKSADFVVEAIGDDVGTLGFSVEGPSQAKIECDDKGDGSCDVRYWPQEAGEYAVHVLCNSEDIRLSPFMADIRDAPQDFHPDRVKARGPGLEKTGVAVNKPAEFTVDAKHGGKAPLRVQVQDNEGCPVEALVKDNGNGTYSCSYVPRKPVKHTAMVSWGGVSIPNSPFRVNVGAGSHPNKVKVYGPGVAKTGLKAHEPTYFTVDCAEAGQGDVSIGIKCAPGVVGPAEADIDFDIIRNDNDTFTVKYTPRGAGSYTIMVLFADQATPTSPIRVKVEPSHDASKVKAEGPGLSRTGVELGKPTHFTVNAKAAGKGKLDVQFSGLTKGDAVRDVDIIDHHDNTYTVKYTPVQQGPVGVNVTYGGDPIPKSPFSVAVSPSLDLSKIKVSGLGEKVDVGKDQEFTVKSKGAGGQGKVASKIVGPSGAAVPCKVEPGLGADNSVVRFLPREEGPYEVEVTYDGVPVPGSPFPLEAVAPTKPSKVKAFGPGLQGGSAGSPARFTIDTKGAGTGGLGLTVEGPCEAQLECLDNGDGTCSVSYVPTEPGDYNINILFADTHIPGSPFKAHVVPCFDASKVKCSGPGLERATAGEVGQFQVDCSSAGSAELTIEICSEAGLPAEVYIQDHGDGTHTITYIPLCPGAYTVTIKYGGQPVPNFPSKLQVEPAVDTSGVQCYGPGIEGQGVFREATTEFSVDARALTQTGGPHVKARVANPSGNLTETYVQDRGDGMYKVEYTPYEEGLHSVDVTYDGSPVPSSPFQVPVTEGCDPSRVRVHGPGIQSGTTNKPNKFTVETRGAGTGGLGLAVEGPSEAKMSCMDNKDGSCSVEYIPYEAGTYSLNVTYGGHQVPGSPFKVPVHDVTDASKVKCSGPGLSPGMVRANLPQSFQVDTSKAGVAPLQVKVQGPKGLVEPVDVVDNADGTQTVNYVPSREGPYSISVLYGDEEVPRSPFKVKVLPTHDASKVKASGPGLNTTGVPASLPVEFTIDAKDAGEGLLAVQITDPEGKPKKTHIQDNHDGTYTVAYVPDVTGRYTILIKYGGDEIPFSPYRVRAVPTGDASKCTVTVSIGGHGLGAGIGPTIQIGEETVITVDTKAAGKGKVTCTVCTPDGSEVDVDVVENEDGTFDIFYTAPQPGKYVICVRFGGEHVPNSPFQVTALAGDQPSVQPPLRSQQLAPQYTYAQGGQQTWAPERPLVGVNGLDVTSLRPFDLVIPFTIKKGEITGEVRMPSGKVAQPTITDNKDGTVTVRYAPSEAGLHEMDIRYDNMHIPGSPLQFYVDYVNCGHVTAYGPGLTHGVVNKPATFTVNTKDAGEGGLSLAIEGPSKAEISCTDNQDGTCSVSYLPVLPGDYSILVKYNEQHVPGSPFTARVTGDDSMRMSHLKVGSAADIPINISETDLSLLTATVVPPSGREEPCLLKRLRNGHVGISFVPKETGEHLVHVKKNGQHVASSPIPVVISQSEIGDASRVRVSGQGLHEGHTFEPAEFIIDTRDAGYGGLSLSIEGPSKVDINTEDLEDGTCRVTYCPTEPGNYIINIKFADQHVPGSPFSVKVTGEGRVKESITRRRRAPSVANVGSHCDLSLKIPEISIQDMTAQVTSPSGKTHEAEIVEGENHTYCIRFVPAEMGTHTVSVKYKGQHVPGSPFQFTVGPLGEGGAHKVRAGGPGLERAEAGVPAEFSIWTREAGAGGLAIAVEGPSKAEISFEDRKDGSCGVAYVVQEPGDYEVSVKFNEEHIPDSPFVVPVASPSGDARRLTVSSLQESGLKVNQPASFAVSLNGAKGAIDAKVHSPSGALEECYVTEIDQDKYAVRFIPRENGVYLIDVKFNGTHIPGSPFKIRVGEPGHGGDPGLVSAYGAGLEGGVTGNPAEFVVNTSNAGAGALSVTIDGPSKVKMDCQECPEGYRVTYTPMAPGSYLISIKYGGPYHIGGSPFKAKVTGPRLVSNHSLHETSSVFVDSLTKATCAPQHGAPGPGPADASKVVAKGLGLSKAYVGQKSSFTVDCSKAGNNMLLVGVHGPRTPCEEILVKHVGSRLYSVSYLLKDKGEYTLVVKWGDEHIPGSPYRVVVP
UniProt P05556: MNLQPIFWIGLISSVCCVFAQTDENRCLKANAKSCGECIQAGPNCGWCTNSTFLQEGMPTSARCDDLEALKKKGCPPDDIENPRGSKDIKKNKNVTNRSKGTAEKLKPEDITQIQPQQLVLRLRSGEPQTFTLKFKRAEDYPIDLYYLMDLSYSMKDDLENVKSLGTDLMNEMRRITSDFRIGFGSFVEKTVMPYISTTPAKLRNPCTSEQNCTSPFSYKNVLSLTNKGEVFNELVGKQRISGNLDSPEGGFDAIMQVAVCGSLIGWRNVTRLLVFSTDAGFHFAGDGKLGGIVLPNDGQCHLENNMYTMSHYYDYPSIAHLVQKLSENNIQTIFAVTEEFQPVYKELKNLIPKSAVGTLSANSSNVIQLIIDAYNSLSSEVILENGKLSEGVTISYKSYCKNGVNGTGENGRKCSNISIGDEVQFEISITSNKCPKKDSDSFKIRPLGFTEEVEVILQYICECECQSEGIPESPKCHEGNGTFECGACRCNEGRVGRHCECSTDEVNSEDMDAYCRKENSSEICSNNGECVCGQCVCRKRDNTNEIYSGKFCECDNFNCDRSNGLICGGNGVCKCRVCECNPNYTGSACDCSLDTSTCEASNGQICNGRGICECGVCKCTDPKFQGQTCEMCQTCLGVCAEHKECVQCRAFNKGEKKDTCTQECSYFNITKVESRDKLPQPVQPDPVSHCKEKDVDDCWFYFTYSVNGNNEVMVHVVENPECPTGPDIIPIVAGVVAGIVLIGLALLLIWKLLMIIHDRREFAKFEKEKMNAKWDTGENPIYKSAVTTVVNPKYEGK

Test [1] deals with androgen receptor (human (endogenous in primary prostate CAFs)) (UniProt P10275). The test is described as follows: condition: only with 10 μM enzalutamide (cells challenged with 10 nM R1881); co-IP; quiescent CAFs challenged 10 min with 10 nM R1881 in the presence of 10 μM enzalutamide; lysates immune-precipitated with anti-AR, blotted for FlnA.
Test [2] has the same target. The test is described as follows: co-IP; lysates of quiescent AR-positive primary prostate CAFs (pooled), unchallenged or challenged 10 min with 10 nM R1881, with or without 10 nM Rh-2025u or 10 μM enzalutamide; immune-precipitation with mouse monoclonal anti-AR (441), Western blot; control IgG. For orientation: Immunoblotting shows a protein as a band on a membrane.

No constants are given. Whether binding was seen depends on the method and setting. Binding seen in cells or lysates may run through a third protein. Some binding calls cover weakened binding; strength is not graded here.

As for filamin A (from UniProt P21333 1-2647), the binding entry in test [1] is on record as “no binding”; in test [2], “binds”.

For the substance “β1 integrin (from UniProt P05556 21-798) (receptor)”, the binding entry in test [2] is “binds”.
